Results are given in words; binding and its absence hold for the method and conditions named. Some entries that bind do so weakly or less than the wild type. Where a sequence is shown, tags or fusion partners need not be part of it.
Biological target: T1, GlyR-α3L-eGFP (glycine receptor α3, long splice variant L, N-terminally tagged with eGFP) (mouse) (UniProt Q91XP5)
T1 sequence: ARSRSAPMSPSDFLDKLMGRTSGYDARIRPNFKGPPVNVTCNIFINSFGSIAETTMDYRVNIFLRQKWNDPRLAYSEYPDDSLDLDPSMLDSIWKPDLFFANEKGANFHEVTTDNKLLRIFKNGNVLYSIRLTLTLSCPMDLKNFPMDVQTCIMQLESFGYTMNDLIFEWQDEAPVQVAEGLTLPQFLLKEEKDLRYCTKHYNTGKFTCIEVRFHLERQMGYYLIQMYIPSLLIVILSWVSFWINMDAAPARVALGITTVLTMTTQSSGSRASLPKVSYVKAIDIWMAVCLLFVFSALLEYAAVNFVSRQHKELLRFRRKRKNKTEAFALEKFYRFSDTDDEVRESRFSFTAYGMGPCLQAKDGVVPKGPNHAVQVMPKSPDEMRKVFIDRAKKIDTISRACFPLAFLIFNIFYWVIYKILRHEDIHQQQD
Test: dual-colour temporal image cross-correlation spectroscopy

binding: binds
B1: GlyR-α3L-eGFP (glycine receptor α3, long splice variant L, N-terminally tagged with eGFP) (receptor, mouse, UniProt Q91XP5 34-464, looked up)
chain: ARSRSAPMSPSDFLDKLMGRTSGYDARIRPNFKGPPVNVTCNIFINSFGSIAETTMDYRVNIFLRQKWNDPRLAYSEYPDDSLDLDPSMLDSIWKPDLFFANEKGANFHEVTTDNKLLRIFKNGNVLYSIRLTLTLSCPMDLKNFPMDVQTCIMQLESFGYTMNDLIFEWQDEAPVQVAEGLTLPQFLLKEEKDLRYCTKHYNTGKFTCIEVRFHLERQMGYYLIQMYIPSLLIVILSWVSFWINMDAAPARVALGITTVLTMTTQSSGSRASLPKVSYVKAIDIWMAVCLLFVFSALLEYAAVNFVSRQHKELLRFRRKRKNKTEAFALEKFYRFSDTDDEVRESRFSFTAYGMGPCLQAKDGVVPKGPNHAVQVMPKSPDEMRKVFIDRAKKIDTISRACFPLAFLIFNIFYWVIYKILRHEDIHQQQD
